# Source: the supplement of paper PMC12819154, “High-throughput peptide-centric local stability assay extends protein–ligand identification to membrane proteins, tissues and bacteria” (Nature Structural & Molecular Biology, 2025)
# Chains of the proteins cited; added tags and fusions are not shown. Lines headed by an entry give the natural chain unless they say otherwise; changes in a name come on top.
# UniProt P16703: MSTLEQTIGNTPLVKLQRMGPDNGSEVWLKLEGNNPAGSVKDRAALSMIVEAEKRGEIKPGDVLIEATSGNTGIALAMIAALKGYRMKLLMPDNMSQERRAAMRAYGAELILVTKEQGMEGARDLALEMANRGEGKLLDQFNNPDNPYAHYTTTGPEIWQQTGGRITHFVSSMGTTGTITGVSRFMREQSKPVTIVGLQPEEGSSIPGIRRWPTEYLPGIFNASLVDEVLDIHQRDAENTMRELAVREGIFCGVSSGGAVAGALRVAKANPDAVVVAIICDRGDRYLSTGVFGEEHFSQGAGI
# UniProt P19769: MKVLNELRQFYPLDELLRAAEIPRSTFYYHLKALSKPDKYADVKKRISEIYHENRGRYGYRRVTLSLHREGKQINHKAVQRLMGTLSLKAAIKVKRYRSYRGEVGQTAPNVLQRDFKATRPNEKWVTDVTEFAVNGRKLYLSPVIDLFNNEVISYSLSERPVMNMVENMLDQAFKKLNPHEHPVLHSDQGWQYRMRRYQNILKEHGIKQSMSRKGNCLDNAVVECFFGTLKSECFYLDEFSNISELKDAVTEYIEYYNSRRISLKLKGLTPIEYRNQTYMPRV
# UniProt P24171: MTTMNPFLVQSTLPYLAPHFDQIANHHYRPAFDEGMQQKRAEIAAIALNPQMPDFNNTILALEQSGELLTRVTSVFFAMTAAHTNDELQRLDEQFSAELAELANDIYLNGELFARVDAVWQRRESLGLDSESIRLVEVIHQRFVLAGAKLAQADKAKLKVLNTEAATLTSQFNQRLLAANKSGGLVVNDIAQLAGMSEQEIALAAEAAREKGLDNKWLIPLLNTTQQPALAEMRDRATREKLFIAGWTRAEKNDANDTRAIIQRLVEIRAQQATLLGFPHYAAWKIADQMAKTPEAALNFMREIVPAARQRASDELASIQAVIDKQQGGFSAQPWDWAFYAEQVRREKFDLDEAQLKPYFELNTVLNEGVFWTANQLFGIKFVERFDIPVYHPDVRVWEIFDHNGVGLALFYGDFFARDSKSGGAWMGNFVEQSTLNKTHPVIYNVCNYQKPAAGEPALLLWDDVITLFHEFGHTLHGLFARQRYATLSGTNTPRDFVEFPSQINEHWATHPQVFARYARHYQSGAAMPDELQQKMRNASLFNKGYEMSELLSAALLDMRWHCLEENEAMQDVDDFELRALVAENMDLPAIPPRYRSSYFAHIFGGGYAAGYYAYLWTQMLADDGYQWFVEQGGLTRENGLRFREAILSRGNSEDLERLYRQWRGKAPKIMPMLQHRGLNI
# UniProt P10903: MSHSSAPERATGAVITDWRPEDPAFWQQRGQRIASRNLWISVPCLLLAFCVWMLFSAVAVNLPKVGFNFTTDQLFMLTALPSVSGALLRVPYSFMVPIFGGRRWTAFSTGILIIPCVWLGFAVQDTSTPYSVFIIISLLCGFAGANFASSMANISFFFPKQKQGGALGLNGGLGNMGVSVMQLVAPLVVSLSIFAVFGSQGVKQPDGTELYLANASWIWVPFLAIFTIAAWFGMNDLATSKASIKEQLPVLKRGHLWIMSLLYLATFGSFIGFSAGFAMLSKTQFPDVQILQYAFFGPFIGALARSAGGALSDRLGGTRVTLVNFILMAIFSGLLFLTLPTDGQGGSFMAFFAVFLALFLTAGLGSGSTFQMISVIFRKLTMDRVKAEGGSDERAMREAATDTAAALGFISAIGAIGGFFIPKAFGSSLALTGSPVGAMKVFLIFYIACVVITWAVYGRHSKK
# UniProt P0CF08: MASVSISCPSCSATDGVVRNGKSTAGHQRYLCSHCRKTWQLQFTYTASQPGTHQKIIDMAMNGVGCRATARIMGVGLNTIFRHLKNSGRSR
# UniProt P14900: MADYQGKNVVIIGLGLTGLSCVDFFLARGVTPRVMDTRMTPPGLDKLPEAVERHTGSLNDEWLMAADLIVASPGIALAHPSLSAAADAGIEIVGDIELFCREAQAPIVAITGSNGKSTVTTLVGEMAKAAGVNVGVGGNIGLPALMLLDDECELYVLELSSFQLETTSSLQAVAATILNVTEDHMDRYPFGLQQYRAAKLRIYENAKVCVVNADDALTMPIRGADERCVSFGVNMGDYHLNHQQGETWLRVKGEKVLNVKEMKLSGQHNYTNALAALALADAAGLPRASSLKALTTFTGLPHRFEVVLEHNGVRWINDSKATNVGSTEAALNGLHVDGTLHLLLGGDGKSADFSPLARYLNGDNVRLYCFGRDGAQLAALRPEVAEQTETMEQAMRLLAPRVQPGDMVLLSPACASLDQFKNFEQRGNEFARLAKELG
# UniProt P17411: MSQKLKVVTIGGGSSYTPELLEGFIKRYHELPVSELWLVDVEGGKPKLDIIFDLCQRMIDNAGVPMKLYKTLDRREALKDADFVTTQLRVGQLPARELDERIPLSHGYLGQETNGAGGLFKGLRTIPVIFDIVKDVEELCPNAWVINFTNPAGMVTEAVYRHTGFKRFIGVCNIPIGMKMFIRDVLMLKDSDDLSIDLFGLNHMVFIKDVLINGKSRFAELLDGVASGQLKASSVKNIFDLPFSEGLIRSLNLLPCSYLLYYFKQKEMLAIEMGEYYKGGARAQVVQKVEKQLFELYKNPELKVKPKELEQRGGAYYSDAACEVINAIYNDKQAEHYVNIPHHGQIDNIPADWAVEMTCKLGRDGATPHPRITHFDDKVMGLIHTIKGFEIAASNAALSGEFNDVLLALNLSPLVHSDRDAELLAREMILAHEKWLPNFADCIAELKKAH
# UniProt P21179: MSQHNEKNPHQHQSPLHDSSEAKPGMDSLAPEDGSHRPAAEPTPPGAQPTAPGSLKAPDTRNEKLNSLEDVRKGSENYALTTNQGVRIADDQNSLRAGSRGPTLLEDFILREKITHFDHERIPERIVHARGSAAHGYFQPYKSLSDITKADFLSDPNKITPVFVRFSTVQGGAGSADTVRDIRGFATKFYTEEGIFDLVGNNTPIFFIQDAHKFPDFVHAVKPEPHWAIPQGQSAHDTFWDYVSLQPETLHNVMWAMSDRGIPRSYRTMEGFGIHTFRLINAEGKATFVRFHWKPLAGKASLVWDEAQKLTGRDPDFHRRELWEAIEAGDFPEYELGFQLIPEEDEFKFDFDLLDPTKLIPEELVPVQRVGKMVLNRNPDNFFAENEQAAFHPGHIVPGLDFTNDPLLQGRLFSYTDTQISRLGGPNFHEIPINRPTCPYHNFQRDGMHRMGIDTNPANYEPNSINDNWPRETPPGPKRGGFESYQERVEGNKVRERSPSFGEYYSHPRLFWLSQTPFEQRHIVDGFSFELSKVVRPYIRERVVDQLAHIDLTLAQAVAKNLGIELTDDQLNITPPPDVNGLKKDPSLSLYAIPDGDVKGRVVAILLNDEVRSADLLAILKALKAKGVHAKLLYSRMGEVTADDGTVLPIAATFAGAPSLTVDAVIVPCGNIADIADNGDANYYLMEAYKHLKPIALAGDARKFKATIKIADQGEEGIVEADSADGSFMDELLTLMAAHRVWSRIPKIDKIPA
# UniProt P22186: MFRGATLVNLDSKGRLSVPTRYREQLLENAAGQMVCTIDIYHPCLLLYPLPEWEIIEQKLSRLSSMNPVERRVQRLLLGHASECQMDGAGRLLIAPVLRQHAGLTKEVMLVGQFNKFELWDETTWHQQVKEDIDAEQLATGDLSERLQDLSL
# UniProt P14375: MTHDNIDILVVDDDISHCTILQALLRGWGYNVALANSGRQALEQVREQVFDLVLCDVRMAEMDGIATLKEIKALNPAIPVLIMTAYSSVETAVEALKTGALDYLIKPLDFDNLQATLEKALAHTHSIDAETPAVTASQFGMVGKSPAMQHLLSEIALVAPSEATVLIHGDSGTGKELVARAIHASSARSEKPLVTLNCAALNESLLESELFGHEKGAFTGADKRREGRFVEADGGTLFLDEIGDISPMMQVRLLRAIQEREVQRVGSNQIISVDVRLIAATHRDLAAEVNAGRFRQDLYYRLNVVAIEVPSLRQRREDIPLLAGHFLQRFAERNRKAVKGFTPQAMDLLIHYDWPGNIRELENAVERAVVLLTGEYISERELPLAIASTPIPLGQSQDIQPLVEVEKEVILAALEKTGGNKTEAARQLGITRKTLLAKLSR
# UniProt P21169, whole entry: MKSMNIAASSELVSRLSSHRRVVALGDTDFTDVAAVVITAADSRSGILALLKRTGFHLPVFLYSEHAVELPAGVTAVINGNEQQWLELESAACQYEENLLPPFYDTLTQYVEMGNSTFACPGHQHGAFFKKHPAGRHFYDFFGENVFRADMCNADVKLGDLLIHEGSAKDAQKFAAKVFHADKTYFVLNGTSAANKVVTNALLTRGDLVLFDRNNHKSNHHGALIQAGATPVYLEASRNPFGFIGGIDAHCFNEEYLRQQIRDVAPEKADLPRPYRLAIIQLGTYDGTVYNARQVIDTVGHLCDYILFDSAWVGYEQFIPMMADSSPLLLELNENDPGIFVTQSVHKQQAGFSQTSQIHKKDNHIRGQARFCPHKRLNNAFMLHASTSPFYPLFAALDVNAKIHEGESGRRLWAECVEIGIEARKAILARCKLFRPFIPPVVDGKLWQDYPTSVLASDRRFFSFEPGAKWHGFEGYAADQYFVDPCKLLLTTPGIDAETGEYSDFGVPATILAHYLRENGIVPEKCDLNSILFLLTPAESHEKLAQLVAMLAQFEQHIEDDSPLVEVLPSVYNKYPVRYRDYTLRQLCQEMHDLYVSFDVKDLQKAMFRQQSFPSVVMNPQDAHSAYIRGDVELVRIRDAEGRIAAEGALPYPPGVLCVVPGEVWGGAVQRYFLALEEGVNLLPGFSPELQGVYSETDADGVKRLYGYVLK
# UniProt P19931: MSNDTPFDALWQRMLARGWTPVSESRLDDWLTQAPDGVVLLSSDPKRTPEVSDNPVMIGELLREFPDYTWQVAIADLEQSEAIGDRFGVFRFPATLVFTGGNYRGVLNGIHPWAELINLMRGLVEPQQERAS
# UniProt P11446: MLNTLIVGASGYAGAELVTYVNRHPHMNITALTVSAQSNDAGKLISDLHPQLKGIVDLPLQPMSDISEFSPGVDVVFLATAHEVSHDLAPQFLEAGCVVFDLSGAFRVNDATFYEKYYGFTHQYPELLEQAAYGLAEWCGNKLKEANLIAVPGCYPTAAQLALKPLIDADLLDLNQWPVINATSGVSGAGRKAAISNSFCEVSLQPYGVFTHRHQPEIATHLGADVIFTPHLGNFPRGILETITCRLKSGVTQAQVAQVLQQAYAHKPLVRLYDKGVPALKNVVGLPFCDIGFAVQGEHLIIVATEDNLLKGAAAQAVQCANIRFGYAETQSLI
# UniProt P18776: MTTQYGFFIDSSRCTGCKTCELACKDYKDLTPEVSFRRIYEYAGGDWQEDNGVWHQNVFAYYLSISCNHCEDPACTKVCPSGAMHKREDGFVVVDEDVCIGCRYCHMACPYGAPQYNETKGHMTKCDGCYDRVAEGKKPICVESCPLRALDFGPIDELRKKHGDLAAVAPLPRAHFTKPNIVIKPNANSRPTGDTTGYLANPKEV
# UniProt P11868: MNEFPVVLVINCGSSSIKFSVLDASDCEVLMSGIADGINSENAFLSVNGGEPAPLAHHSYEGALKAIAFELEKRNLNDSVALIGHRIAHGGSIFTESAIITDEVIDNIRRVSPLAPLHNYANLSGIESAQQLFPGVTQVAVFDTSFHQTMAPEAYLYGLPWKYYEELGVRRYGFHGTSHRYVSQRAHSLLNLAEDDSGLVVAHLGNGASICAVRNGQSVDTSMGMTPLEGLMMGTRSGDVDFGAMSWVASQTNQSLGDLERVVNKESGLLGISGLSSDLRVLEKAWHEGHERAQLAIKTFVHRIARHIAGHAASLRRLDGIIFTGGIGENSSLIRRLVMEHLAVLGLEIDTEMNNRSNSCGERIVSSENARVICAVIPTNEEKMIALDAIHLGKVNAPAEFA
# UniProt P23842: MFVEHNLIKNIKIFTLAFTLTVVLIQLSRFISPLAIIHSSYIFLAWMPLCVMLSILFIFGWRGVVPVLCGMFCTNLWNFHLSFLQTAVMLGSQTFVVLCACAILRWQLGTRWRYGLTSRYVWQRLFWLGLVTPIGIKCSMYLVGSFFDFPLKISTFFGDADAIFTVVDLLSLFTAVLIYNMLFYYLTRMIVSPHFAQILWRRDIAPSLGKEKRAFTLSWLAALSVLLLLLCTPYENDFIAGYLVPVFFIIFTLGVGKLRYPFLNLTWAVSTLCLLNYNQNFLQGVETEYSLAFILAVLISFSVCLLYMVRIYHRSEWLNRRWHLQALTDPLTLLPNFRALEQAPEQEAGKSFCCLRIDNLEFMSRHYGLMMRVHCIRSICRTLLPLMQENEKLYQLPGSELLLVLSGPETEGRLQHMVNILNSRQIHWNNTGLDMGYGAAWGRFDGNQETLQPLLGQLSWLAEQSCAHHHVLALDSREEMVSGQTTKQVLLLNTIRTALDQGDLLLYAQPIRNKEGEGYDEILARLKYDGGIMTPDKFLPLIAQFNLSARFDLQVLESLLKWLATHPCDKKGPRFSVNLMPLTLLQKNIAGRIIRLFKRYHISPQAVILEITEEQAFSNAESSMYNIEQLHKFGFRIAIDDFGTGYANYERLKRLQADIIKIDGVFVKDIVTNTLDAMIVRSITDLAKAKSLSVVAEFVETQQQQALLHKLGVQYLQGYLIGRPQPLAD
# This is one part of the list. Most values lie at the level of the controls, where differences are scatter.
# Compound: CC1(C)S[C@@H]2[C@H](NC(=O)[C@H](N)c3ccccc3)C(=O)N2[C@H]1C(=O)O [ampicillin]
# Assay: log2 fold change of tryptic peptide abundance, ligand vs vehicle (limited proteolysis) (log2 ratio); higher = more trypsin-susceptible (destabilized)
# Conditions: ligand concentration: 10 uM; sample: E. coli crude lysate
row,Target,log2 fold change
1,"UniProt P13039 (peptide sequence: AIAPFSDR, peptide start residue: 264)",-0.283
2,"UniProt P16703 (peptide sequence: LLMPDNMSQER, peptide start residue: 89)",0.142
3,"UniProt P13669 (peptide sequence: YHFIEEVKK, peptide start residue: 162)",0.259
4,"UniProt P19769 (peptide sequence: AVQRLMGTLSLK, peptide start residue: 78)",-0.217
5,"UniProt P14081 (peptide sequence: DALLFPEK, peptide start residue: 607)",-0.322
6,"UniProt P24171 (peptide sequence: AQQATLLGFPHYAAWK, peptide start residue: 270)",-0.361
7,"UniProt P0CG19 (peptide sequence: HAEGSVLVEFGDTK, peptide start residue: 23)",-0.201
8,"UniProt P21367 (peptide sequence: AQFPDTPYIAR, peptide start residue: 74)",-0.324
9,"UniProt P15006 (peptide sequence: METDITIR, peptide start residue: 241)",-0.141
10,"UniProt P10903 (peptide sequence: VKAEGGSDER, peptide start residue: 385)",0.234
11,"UniProt P0CF08 (peptide sequence: IMGVGLNTIFR, peptide start residue: 72)",0.103
12,"UniProt P16431 (peptide sequence: MAEILTGAR, peptide start residue: 314)",-0.219
13,"MurD (peptide sequence: STVTTLVGEMAK, peptide start residue: 117) (UniProt P14900)",0.546
14,"UniProt P17411 (peptide sequence: QLFELYKNPELK, peptide start residue: 292)",0.19
15,"UniProt P21865 (peptide sequence: QLMIPEQQR, peptide start residue: 621)",0.574
16,"UniProt P23843 (peptide sequence: LGMDRDIIVNKVK, peptide start residue: 321)",-0.596
17,"UniProt P10346 (peptide sequence: GANKEEAEK, peptide start residue: 107)",1.2

# As a working copy, some entries already given:
row,Target,log2 fold change
7,"UniProt P0CG19 (peptide sequence: HAEGSVLVEFGDTK, peptide start residue: 23)",-0.201
8,"UniProt P21367 (peptide sequence: AQFPDTPYIAR, peptide start residue: 74)",-0.324

# (listing goes on)

row,Target,log2 fold change
1,"UniProt P21179 (peptide sequence: RGGFESYQER, peptide start residue: 479)",0.291
2,"UniProt P22186 (peptide sequence: LLIAPVLR, peptide start residue: 92)",-0.344
3,"UniProt P21420 (peptide sequence: VLPEVFASGK, peptide start residue: 227)",-0.227
4,"UniProt P15038 (peptide sequence: YHHMRPASLEK, peptide start residue: 569)",0.462
5,"UniProt P19318 (peptide sequence: FNLFNSSR, peptide start residue: 491)",-0.327
6,"UniProt P16681 (peptide sequence: ISFGEMPK, peptide start residue: 32)",-0.112
7,"UniProt P14375 (peptide sequence: VGSNQIISVDVR, peptide start residue: 265)",0.156
8,"UniProt P21169 (peptide sequence: DVAPEKADLPRPYR, peptide start residue: 263)",-0.502
9,"UniProt P19931 (peptide sequence: GLVEPQQER, peptide start residue: 122)",0.107
10,"UniProt P11446 (peptide sequence: GILETITCR, peptide start residue: 238)",-0.306
11,"UniProt P22525 (peptide sequence: RFQAWQGLGADGAIGPATR, peptide start residue: 327)",-0.874
12,"UniProt P18776 (peptide sequence: DLTPEVSFRR, peptide start residue: 29)",-0.634
13,"UniProt P11868 (peptide sequence: YYEELGVRR, peptide start residue: 163)",-0.401
14,"UniProt P23869 (peptide sequence: EPIKNEANNGLK, peptide start residue: 66)",0.279
15,"UniProt P23842 (peptide sequence: NKEGEGYDEILAR, peptide start residue: 513)",0.471
16,"UniProt P23894 (peptide sequence: WLVNTVATQAR, peptide start residue: 77)",-0.186
